This is an account of results in US10335446B2, “Methods of treating diseases using grape proteins” (priority 2015, dated 2019).

A short description of the experiment: Diet-induced obesity (DIO) mice study: blood glucose, insulin, plasma lipids, body weight, food intake. In kind it is in vivo, C57BL/6J male mice. To be noted: 0-8 weeks, Atorvastatin 20 mg/kg, test articles tid po 10 mL/kg + ad libitum. As to the method: The efficacy of RAAS products in mice was evaluated according to the following experimental design of therapeutics in diet-induced obesity (DIO) mice. DIO mice creation: After one-week acclimation, the mice are fed a high fat pelleted diet (D12492i; Research Diets, Inc) and fresh water, ad libitum. Typically, C57BL/6J male mice become obese, mildly to moderately hyperglycemic and develop impaired glucose tolerance after 12-14 weeks of high fat diet treatment. Mice are preferably 40-50 g or greater at the time of the study. Group setting (n=10, 4 mice for immunology): […] Body weight and food intake were recorded twice per week. BG, insulin, TG, HDL-C, LDL-C, and TCHO in plasma once per two weeks (baseline were tested before study start (FIG. 68)). Data were analyzed and graphed by Graph Pad Prism.

For `CC(C)c1c(C(=O)Nc2ccccc2)c(-c2ccccc2)c(-c2ccc(F)cc2)n1CC[C@@H](O)C[C@@H](O)CC(=O)O` [Atorvastatin], the “plasma HDL level” value is given as “significantly decrease”, the “plasma LDL level” value was “trend to decrease”, the “plasma TCHO level” value is given as “trend to decrease” and the “plasma TG level” value is listed as “significantly decrease”.
